According to US20250074896A1, “ARYLTETRAHYDROPYRIDAZINE DERIVATIVE OR SALT THEREOF AND INSECTICIDAL AGENT CONTAINING THE COMPOUND AND METHOD FOR USING SAME” (NIHON NOHYAKU CO., LTD., priority 2021, published 2025):
Some of these results come from one statement about several compounds together.

What was measured:
Type in all cases: in vivo
[1] = tested on: Western Flower Thrips (Frankliniella occidentalis); assay: Insecticidal test on western flower thrips (kidney bean leaf pieces, hatched larvae); settings: 4 days after the treatment
[2] = tested on: Diamondback moth (Plutella xylostella); assay: Insecticidal test on diamondback moth (dip treatment of Chinese cabbage seedlings with laid eggs); settings: dip about 30 seconds, 6 days after treatment, 25° C.
[3] = tested on: Small Brown Planthopper (Laodelphax striatellus); assay: Insecticidal test on small brown planthopper (dipped rice seedlings, 3rd-instar larvae); settings: rice seedlings dipped 30 seconds, 8 days after inoculation

COC(=O)N1C(=O)C(C(=S)Nc2cccc(F)c2)=C(O)CN1c1ccc(C#N)nc1 [4-74]
A (the mortality rate is 100%): insecticidal efficacy (corrected mortality rate) against western flower thrips ([1]; 50 ppm) | insecticidal efficacy (corrected mortality rate) against western flower thrips ([1]; 500 ppm) | insecticidal efficacy (corrected mortality rate) against diamondback moth ([2]; 50 ppm) | insecticidal efficacy (corrected mortality rate) against diamondback moth ([2]; 500 ppm) | insecticidal efficacy (corrected mortality rate) against small brown planthopper ([3]; 50 ppm) | insecticidal efficacy (corrected mortality rate) against small brown planthopper ([3]; 500 ppm)

COC(=O)N1C(=O)C(C(=O)Nc2ccc(OC)nc2)=C(O)CN1c1ccc(Br)nc1 [3-114]
A (the mortality rate is 100%): insecticidal efficacy (corrected mortality rate) against western flower thrips ([1]; 50 ppm) | insecticidal efficacy (corrected mortality rate) against western flower thrips ([1]; 500 ppm) | insecticidal efficacy (corrected mortality rate) against diamondback moth ([2]; 500 ppm) | insecticidal efficacy (corrected mortality rate) against small brown planthopper ([3]; 50 ppm) | insecticidal efficacy (corrected mortality rate) against small brown planthopper ([3]; 500 ppm)

COC(=O)N1C(=O)C(C(=O)Nc2ccc(F)cc2)=C(O)CN1c1cnc(C#N)c(SC)c1 [3-387]
A (the mortality rate is 100%): insecticidal efficacy (corrected mortality rate) against western flower thrips ([1]; 50 ppm) | insecticidal efficacy (corrected mortality rate) against western flower thrips ([1]; 500 ppm) | insecticidal efficacy (corrected mortality rate) against diamondback moth ([2]; 50 ppm) | insecticidal efficacy (corrected mortality rate) against diamondback moth ([2]; 500 ppm) | insecticidal efficacy (corrected mortality rate) against small brown planthopper ([3]; 50 ppm) | insecticidal efficacy (corrected mortality rate) against small brown planthopper ([3]; 500 ppm)

N#Cc1ccc(N2CC(O)=C(C(=O)Nc3ccc(F)cn3)C(=O)N2)cc1F [1-33]
A (the mortality rate is 100%): insecticidal efficacy (corrected mortality rate) against western flower thrips ([1]; 50 ppm) | insecticidal efficacy (corrected mortality rate) against western flower thrips ([1]; 500 ppm) | insecticidal efficacy (corrected mortality rate) against diamondback moth ([2]; 50 ppm) | insecticidal efficacy (corrected mortality rate) against diamondback moth ([2]; 500 ppm) | insecticidal efficacy (corrected mortality rate) against small brown planthopper ([3]; 50 ppm) | insecticidal efficacy (corrected mortality rate) against small brown planthopper ([3]; 500 ppm)

COC(=O)N1C(=O)C(C(=O)Nc2ccc(F)cc2)=C(O)CN1c1ccc(Br)nc1 [3-115]
A (the mortality rate is 100%): insecticidal efficacy (corrected mortality rate) against western flower thrips ([1]; 50 ppm) | insecticidal efficacy (corrected mortality rate) against western flower thrips ([1]; 500 ppm) | insecticidal efficacy (corrected mortality rate) against diamondback moth ([2]; 50 ppm) | insecticidal efficacy (corrected mortality rate) against diamondback moth ([2]; 500 ppm) | insecticidal efficacy (corrected mortality rate) against small brown planthopper ([3]; 50 ppm) | insecticidal efficacy (corrected mortality rate) against small brown planthopper ([3]; 500 ppm)

COC(=O)N1C(=O)C(C(=O)Nc2cc(C)no2)=C(O)CN1c1cnc(C#N)c(Cl)c1 [3-469]
A (the mortality rate is 100%): insecticidal efficacy (corrected mortality rate) against western flower thrips ([1]; 500 ppm) | insecticidal efficacy (corrected mortality rate) against diamondback moth ([2]; 500 ppm) | insecticidal efficacy (corrected mortality rate) against small brown planthopper ([3]; 50 ppm) | insecticidal efficacy (corrected mortality rate) against small brown planthopper ([3]; 500 ppm)

N#Cc1ccc(N2CC(O)=C(C(=O)Nc3cnc(Cl)cn3)C(=O)N2)cn1 [1-173]
A (the mortality rate is 100%): insecticidal efficacy (corrected mortality rate) against western flower thrips ([1]; 50 ppm) | insecticidal efficacy (corrected mortality rate) against western flower thrips ([1]; 500 ppm) | insecticidal efficacy (corrected mortality rate) against diamondback moth ([2]; 50 ppm) | insecticidal efficacy (corrected mortality rate) against diamondback moth ([2]; 500 ppm) | insecticidal efficacy (corrected mortality rate) against small brown planthopper ([3]; 500 ppm)

COC(=O)N1C(=O)C(C(=O)Nc2cccc(C)n2)=C(O)CN1c1ccc(Cl)cn1 [3-540]
A (the mortality rate is 100%): insecticidal efficacy (corrected mortality rate) against western flower thrips ([1]; 50 ppm) | insecticidal efficacy (corrected mortality rate) against western flower thrips ([1]; 500 ppm) | insecticidal efficacy (corrected mortality rate) against diamondback moth ([2]; 50 ppm) | insecticidal efficacy (corrected mortality rate) against diamondback moth ([2]; 500 ppm) | insecticidal efficacy (corrected mortality rate) against small brown planthopper ([3]; 50 ppm) | insecticidal efficacy (corrected mortality rate) against small brown planthopper ([3]; 500 ppm)

COC(=O)N1C(=O)C(C(=O)Nc2ccc(C)cc2)=C(O)CN1c1ccc(Br)nc1 [3-626]
A (the mortality rate is 100%): insecticidal efficacy (corrected mortality rate) against western flower thrips ([1]; 500 ppm) | insecticidal efficacy (corrected mortality rate) against diamondback moth ([2]; 500 ppm) | insecticidal efficacy (corrected mortality rate) against small brown planthopper ([3]; 500 ppm)

Cc1ccc(NC(=O)C2=C(O)CN(c3ccc(C(F)(F)F)cn3)NC2=O)cc1 [1-108]
A (the mortality rate is 100%): insecticidal efficacy (corrected mortality rate) against western flower thrips ([1]; 50 ppm) | insecticidal efficacy (corrected mortality rate) against western flower thrips ([1]; 500 ppm) | insecticidal efficacy (corrected mortality rate) against diamondback moth ([2]; 50 ppm) | insecticidal efficacy (corrected mortality rate) against diamondback moth ([2]; 500 ppm) | insecticidal efficacy (corrected mortality rate) against small brown planthopper ([3]; 500 ppm)

N#Cc1ccc(N2CC(O)=C(C(=O)Nc3ccc(I)cc3)C(=O)N2)cn1 [1-105]
A (the mortality rate is 100%): insecticidal efficacy (corrected mortality rate) against western flower thrips ([1]; 500 ppm) | insecticidal efficacy (corrected mortality rate) against diamondback moth ([2]; 500 ppm) | insecticidal efficacy (corrected mortality rate) against small brown planthopper ([3]; 500 ppm)

CCNC(=O)N1C(=O)C(C(=O)Nc2ccc(F)cc2)=C(O)CN1c1ccc(Cl)nc1 [3-23]
A (the mortality rate is 100%): insecticidal efficacy (corrected mortality rate) against western flower thrips ([1]; 50 ppm) | insecticidal efficacy (corrected mortality rate) against western flower thrips ([1]; 500 ppm) | insecticidal efficacy (corrected mortality rate) against diamondback moth ([2]; 500 ppm) | insecticidal efficacy (corrected mortality rate) against small brown planthopper ([3]; 50 ppm) | insecticidal efficacy (corrected mortality rate) against small brown planthopper ([3]; 500 ppm)

Cc1cc(N2CC(O)=C(C(=O)Nc3cc(F)c(F)c(F)c3)C(=O)N2)cnc1C#N [1-323]
A (the mortality rate is 100%): insecticidal efficacy (corrected mortality rate) against western flower thrips ([1]; 50 ppm) | insecticidal efficacy (corrected mortality rate) against western flower thrips ([1]; 500 ppm) | insecticidal efficacy (corrected mortality rate) against diamondback moth ([2]; 50 ppm) | insecticidal efficacy (corrected mortality rate) against diamondback moth ([2]; 500 ppm) | insecticidal efficacy (corrected mortality rate) against small brown planthopper ([3]; 50 ppm) | insecticidal efficacy (corrected mortality rate) against small brown planthopper ([3]; 500 ppm)

COC(=O)N1C(=O)C(C(=O)Nc2ccc(F)cn2)=C(O)CN1c1ccc(C#N)c(F)c1 [3-216]
A (the mortality rate is 100%): insecticidal efficacy (corrected mortality rate) against western flower thrips ([1]; 50 ppm) | insecticidal efficacy (corrected mortality rate) against western flower thrips ([1]; 500 ppm) | insecticidal efficacy (corrected mortality rate) against diamondback moth ([2]; 50 ppm) | insecticidal efficacy (corrected mortality rate) against diamondback moth ([2]; 500 ppm) | insecticidal efficacy (corrected mortality rate) against small brown planthopper ([3]; 50 ppm) | insecticidal efficacy (corrected mortality rate) against small brown planthopper ([3]; 500 ppm)
